This passage reports binding signal (log2 enrichment (interaction score)) results from paper PMC8384837.

Some of the results follow. At the low end of the ranking the order means little.

This assay deals with T1, PUM1 PUF domain R1-QFR R2-VFQ R7-NPG S863Q + R864F + Q867R + N899V + Y900F + S1079N + N1080P + E1083G (UniProt Q14671).
T1 sequence: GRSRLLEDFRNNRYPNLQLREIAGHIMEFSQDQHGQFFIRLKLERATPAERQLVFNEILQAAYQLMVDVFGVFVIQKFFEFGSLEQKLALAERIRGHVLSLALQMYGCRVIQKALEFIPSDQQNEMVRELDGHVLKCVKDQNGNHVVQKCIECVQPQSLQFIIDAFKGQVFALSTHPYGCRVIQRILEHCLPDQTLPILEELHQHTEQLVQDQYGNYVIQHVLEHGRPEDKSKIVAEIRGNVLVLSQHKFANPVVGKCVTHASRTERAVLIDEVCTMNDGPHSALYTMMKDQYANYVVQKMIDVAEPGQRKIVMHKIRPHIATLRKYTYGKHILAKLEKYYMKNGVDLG
Particulars: yeast three-hybrid, YBZ-1, SC-Leu-His + 0.5 mM 3-AT, 4 days.
“GGCUAGAACUAGUGGAUCCCCCGGCGCCCGGCGGCUCGAGCCCGGGUAAGUACCCUAAGUCUGCAUGCCGCCGGGCGCCAUGCCUGCAGGUCGACUCUAGAAAACAUG”: the binding signal (log2 enrichment (interaction score)) was -6.04.

For the sequence “GGCUAGAACUAGUGGAUCCCCCGGCGCCCGGCGGCUCGAGCCCGGGUAAGGUGUGGUGGUCUGCAUGCCGCCGGGCGCCAUGCCUGCAGGUCGACUCUAGAAAACAUG”, the binding signal (log2 enrichment (interaction score)) was -5.45.

Take “GGCUAGAACUAGUGGAUCCCCCGGCGCCCGGCGGCUCGAGCCCGGGUAAGUGGAAAAUGUCUGCAUGCCGCCGGGCGCCAUGCCUGCAGGUCGACUCUAGAAAACAUG”: the binding signal (log2 enrichment (interaction score)) was < -5.74. Turning to “GGCUAGAACUAGUGGAUCCCCCGGCGCCCGGCGGCUCGAGCCCGGGUAAGUUUGUUAGGUCUGCAUGCCGCCGGGCGCCAUGCCUGCAGGUCGACUCUAGAAAACAUG”, the binding signal (log2 enrichment (interaction score)) was -6.51. Then “GGCUAGAACUAGUGGAUCCCCCGGCGCCCGGCGGCUCGAGCCCGGGUAAGUUCAAUGCGUCUGCAUGCCGCCGGGCGCCAUGCCUGCAGGUCGACUCUAGAAAACAUG”, with < -5.52. The result for “GGCUAGAACUAGUGGAUCCCCCGGCGCCCGGCGGCUCGAGCCCGGGUAAGCGGCCACCGUCUGCAUGCCGCCGGGCGCCAUGCCUGCAGGUCGACUCUAGAAAACAUG” reads -5.72; that for “GGCUAGAACUAGUGGAUCCCCCGGCGCCCGGCGGCUCGAGCCCGGGUAAGUCUAUAAAGUCUGCAUGCCGCCGGGCGCCAUGCCUGCAGGUCGACUCUAGAAAACAUG”, < -5.81. For the sequence “GGCUAGAACUAGUGGAUCCCCCGGCGCCCGGCGGCUCGAGCCCGGGUAAGUUAAAGGUGUCUGCAUGCCGCCGGGCGCCAUGCCUGCAGGUCGACUCUAGAAAACAUG”, the binding signal (log2 enrichment (interaction score)) is -6.35.
